No constants are given. Whether binding was seen depends on the method and setting. In cells and extracts the contact can be indirect. Some entries that bind do so weakly or less than the wild type.
Target: CAPON (carboxy-terminal PDZ ligand of nNOS), endogenous, mouse ischemic cortex (mouse) (UniProt Q9D3A8)
Assay: co-immunoprecipitation from ischemic mouse cortex

By UniProt entry, the sequences of proteins in these tests, tags left out.
UniProt Q9D3A8: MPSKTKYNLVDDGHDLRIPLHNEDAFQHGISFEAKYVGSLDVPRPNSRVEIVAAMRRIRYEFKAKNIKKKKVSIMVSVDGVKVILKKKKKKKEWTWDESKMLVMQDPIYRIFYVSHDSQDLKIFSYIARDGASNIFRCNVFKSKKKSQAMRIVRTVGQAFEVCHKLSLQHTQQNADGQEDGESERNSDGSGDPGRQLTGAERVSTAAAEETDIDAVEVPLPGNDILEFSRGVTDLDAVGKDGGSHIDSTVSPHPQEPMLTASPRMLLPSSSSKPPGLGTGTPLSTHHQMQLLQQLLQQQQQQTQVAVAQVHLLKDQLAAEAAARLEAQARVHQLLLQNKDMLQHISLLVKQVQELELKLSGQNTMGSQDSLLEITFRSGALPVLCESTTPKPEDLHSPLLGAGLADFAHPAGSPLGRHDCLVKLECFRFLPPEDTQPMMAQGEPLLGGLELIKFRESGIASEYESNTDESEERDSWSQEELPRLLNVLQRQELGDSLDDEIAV
UniProt Q9Z0J4: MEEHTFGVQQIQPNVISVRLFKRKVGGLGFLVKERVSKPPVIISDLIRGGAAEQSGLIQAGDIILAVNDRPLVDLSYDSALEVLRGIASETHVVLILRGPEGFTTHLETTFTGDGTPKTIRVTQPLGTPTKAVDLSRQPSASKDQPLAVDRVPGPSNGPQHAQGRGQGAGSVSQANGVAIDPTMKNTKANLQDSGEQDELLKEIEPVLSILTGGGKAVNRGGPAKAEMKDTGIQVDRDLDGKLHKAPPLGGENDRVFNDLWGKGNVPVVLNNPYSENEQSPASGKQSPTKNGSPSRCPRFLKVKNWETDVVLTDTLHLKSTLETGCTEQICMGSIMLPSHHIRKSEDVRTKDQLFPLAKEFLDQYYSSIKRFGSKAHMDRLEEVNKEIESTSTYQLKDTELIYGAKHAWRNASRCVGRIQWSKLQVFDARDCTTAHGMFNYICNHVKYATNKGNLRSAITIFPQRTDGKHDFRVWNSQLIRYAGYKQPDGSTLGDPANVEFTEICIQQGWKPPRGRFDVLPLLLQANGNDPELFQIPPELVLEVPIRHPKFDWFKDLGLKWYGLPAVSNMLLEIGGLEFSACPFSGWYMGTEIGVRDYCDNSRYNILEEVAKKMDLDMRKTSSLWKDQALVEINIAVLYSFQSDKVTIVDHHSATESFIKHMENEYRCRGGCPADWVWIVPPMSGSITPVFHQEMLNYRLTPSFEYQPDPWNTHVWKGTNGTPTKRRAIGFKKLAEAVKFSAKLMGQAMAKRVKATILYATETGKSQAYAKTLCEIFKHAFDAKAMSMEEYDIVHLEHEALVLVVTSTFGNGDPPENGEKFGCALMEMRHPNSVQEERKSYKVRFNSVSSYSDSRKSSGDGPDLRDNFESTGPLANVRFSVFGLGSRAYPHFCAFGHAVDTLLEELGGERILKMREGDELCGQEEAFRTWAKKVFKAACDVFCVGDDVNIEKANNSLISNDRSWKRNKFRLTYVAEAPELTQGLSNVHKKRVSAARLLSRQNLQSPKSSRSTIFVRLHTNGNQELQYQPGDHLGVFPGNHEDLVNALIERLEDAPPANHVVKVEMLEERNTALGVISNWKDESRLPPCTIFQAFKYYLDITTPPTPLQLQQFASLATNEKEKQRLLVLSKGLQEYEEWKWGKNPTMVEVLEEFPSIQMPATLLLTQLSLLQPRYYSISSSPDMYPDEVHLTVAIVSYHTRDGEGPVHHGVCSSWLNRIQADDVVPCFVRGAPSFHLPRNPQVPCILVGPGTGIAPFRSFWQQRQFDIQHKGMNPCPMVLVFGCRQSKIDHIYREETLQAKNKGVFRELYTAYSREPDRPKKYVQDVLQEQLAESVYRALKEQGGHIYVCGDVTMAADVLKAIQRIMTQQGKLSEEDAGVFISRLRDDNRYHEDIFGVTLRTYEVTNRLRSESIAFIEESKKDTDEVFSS

Substance: nNOS (endogenous, mouse cortex) (from UniProt Q9Z0J4 1-1429) (enzyme)
- binding: binds
